The values below come from article PMC12000354.

The chains behind the UniProt entries cited, without tags or fusion partners.
UniProt Q93009: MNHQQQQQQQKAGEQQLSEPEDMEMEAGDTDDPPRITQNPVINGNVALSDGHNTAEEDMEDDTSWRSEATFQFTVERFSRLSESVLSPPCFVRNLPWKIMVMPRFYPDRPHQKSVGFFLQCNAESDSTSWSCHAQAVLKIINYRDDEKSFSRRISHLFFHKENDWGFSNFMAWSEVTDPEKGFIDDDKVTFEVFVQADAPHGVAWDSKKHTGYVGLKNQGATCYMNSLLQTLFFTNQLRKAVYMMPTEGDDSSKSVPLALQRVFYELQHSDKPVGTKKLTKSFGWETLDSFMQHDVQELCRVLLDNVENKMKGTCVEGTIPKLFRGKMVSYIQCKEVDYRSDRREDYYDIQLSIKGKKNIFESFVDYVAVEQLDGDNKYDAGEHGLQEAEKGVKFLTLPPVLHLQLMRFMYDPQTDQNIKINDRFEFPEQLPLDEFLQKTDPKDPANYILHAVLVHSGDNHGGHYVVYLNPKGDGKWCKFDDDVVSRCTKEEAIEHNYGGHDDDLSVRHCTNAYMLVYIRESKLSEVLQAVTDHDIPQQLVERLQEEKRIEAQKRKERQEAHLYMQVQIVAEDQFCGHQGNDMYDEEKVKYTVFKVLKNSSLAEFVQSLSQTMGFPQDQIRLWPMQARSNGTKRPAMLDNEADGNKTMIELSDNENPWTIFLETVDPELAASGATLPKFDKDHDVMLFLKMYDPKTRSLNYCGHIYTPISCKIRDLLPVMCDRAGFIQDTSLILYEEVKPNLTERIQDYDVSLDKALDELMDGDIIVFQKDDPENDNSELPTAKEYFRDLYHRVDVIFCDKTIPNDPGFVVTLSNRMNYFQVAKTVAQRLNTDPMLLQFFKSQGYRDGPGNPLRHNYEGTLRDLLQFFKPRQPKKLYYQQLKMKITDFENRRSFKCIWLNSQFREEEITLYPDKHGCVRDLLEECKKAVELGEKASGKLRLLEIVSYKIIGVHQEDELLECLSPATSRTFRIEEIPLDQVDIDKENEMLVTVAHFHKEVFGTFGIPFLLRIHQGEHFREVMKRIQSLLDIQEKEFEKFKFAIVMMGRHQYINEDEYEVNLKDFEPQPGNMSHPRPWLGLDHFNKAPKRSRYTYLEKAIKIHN
UniProt Q16531: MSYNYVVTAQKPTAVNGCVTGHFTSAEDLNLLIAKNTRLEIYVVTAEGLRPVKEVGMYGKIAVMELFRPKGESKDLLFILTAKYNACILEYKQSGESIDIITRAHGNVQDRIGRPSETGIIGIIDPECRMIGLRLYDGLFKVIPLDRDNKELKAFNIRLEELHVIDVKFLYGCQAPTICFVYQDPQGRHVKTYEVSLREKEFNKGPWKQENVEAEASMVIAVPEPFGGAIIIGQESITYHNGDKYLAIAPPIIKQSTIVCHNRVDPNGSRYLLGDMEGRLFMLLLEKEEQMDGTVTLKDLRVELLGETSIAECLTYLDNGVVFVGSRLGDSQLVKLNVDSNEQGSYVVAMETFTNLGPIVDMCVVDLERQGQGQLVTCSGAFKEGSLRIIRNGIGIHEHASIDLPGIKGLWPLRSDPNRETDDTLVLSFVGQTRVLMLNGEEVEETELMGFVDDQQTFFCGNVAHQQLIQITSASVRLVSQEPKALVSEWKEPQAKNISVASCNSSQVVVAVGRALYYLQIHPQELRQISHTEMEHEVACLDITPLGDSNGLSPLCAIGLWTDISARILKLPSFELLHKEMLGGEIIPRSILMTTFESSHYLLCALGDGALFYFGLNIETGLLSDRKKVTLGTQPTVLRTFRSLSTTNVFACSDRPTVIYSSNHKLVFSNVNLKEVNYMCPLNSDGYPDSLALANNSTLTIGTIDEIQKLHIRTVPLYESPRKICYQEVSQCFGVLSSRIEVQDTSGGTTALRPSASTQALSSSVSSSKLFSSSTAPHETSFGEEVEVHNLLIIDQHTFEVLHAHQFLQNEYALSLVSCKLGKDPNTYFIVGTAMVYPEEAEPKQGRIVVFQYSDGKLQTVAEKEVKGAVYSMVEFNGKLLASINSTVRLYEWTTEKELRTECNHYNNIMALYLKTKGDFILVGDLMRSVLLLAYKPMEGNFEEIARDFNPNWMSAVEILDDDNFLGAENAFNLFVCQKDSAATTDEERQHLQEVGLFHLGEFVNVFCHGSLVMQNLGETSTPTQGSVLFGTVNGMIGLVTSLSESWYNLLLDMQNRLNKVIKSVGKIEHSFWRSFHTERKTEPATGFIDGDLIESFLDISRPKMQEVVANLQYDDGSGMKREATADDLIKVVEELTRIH
UniProt Q86WJ1: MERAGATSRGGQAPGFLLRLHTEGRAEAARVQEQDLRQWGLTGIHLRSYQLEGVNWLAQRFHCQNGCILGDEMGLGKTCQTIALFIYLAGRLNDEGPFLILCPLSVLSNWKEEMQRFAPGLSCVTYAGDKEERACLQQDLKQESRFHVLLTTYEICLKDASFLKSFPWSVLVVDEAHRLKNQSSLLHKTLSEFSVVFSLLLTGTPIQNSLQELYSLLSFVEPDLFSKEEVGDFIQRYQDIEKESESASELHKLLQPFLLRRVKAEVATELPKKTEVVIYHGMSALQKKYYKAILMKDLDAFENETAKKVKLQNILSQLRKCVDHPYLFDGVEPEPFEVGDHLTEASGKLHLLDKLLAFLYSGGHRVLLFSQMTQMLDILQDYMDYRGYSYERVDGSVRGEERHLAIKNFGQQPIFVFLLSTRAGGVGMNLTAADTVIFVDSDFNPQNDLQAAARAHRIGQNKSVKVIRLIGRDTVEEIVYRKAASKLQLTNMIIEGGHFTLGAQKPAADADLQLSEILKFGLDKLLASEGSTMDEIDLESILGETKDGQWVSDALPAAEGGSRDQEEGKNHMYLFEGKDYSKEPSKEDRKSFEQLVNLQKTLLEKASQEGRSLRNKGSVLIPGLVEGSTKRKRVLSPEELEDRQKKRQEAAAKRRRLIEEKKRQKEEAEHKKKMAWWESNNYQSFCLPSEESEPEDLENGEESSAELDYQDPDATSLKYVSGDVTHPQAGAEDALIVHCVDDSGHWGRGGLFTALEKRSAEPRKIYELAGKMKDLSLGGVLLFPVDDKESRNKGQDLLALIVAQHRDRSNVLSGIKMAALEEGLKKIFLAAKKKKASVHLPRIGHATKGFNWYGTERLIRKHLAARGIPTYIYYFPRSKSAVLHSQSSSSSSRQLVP

No constants are given. Whether binding was seen depends on the method and setting. Binding seen in cells or lysates may run through a third protein. Here binding means that the protein was enriched with, or labelled near, the bait; the list need not be complete. Tags and fused reporters may be left off the sequences shown.

T1: Flag-VRK1 (Vaccinia-related kinase 1) (UniProt Q99986)
T1 sequence: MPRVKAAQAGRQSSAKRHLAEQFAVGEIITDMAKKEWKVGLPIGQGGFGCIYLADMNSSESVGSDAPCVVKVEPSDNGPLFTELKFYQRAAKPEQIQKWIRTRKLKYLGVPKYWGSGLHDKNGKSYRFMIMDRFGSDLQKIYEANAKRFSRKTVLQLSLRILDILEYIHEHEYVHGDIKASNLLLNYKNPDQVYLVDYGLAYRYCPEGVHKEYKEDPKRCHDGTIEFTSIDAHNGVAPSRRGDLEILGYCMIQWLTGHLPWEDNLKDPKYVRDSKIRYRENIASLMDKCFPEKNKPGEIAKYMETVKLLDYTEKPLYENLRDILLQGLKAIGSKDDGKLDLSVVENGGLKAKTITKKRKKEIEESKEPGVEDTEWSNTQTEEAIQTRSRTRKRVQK

B1: Barrier-to-autointegration factor (BAF) (protein, UniProt O75531 1-89)
chain: MTTSQKHRDFVAEPMGEKPVGSLAGIGEVLGKKLEERGFDKAYVVLGQFLVLKKDEDLFREWLKDTCGANAKQSRDCFGCLREWCDAFL

The test concerns the target T1, Flag-VRK1 (Vaccinia-related kinase 1). As to the kind of experiment: affinity purification with mass spectrometry; VRK1 immunoprecipitated with magnetic beads, SDS-PAGE, Coomassie staining, excised gel digested, LC-MS/MS (Q-Exactive); cell line not stated.
In the case of USP7 (from UniProt Q93009 1-1102), the binding result was “binds”.

For the molecule DDB1 (from UniProt Q16531 1-1140), the binding entry is given as “binds”.

On to “endogenous CHD1L (chromodomain helicase DNA binding protein 1-like) (from UniProt Q86WJ1 1-897)”, for which the binding result was “binds”.

In the case of B1, the binding entry is “binds”.
